The assay has as its target MBP-PIF6_(1-100)-His6 (A. thaliana) (UniProt Q8L5W7). The assay can be described thus: SEC; as a1, but PhyB illuminated with saturating 740 nm light (OFF state); both purified.

Protein sequences, listed by entry. Tags and fused reporters are not part of them. Residues count along the entry.
UniProt Q8L5W7, residues 1-100: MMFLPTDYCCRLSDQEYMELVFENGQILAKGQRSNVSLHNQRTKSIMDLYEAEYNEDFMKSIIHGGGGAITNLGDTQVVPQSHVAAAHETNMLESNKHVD
UniProt P14713, residues 1-651: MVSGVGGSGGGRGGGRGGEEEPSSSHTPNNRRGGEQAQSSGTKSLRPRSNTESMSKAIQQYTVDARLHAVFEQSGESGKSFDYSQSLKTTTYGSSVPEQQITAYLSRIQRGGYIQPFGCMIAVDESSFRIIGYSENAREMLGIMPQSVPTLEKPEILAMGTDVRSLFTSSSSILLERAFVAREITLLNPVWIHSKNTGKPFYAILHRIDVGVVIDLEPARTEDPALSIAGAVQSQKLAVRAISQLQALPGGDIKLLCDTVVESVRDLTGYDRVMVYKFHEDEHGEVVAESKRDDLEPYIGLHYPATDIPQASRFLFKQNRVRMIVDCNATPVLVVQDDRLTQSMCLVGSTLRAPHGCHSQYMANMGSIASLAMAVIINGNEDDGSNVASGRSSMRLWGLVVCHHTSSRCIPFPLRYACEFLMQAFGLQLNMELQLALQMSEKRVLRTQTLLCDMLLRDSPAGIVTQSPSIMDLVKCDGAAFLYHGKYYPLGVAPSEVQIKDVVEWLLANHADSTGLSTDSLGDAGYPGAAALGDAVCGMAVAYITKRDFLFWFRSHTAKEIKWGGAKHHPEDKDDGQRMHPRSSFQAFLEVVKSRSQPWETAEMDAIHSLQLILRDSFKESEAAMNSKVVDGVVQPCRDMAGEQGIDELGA

No constants are given. Whether binding was seen depends on the method and setting.

In the case of “PhyB_(1-651)-Avitag-His6 (from UniProt P14713 1-651) (domain or fragment)”, the binding result is “no binding (condition: PhyB illuminated with 740 nm light)”.

The record behind these values is PMC6488296.
